No constants are given. Whether binding was seen depends on the method and setting. Some results given as binding are weak or reduced against the parent protein; the word gives no strength.
target: IGF1R (UniProt P08069); experiment: MRD identification, Example 48

The chains behind the UniProt entries cited, without tags or fusion partners. Residues count along the entry.
UniProt P08069, residues 31-932: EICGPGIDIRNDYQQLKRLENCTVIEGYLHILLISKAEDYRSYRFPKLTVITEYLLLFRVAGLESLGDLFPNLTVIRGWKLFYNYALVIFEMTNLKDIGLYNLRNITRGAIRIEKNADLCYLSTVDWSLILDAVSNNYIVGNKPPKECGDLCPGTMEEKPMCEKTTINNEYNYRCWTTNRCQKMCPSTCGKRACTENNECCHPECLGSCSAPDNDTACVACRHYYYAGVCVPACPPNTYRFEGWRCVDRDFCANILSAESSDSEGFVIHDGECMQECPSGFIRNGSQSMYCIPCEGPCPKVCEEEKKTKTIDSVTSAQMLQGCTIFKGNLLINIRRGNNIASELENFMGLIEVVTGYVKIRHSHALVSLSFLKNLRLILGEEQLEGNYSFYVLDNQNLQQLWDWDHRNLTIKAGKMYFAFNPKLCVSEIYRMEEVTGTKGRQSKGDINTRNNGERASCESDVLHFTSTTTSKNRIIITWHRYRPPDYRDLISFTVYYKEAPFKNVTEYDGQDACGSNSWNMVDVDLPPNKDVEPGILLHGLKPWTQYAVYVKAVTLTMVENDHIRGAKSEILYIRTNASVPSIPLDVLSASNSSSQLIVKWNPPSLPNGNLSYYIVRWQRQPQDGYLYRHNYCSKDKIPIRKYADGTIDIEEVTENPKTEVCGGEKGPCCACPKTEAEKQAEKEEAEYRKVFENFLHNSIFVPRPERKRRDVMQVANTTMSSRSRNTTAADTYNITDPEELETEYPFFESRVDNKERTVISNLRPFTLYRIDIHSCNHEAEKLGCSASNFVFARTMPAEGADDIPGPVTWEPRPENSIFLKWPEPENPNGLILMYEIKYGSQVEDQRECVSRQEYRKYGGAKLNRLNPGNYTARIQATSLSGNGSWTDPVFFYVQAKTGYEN

binding, binds:
KVTPFMLCQEFPELCF [IGF547]
RITPNDLCQEFQELCF [IGF574]
YRAERPELCKEFPELCFFENDWW [IGF579]
SAWEGYAWFDLQVESG [IGF611]
LCREFIELCFDIETEV [IGF580]
YEPPHSLCLEFVELCF [IGF551]
GLVQHNLCLEFVELCF [IGF583]
LSPAELLCLDFPELCF [IGF570]
LYTPQSMCAEFTELCF [IGF582]
RMSEMDLCAEFFELCF [IGF562]
RFSESPPLCKEFPELCFWSPPFP [IGF586]
FAPPHPLCIEFQELCF [IGF575]
APGEHWLCLEFQELCF [IGF548]
LCAEFHELCFDISNQE [IGF563]
VGKEVFRLCKEFPELCFYPAISQ [IGF577]
DTWEGYLWLYAQTADA [IGF605]
LCFEFAELCFDTEFYN [IGF564]
LLASEWEGYEWLYGQI [IGF633]
IPGLCLEFPELCFHQW [IGF592]
YTRSLGDPWEGYSWLY [IGF607]
LSTDWSGDWEGYAWLY [IGF630]
SVLGCDDVGFYQCLEFL [IGF1275]
RIYPSELCLEFAELCF [IGF559]
LSPEFPDLCLYFGLDC [IGF554]
RDFTYDTDWEGYSWLY [IGF589]
FASGEYPPWEGYRWLY [IGF602]
SEWYHPLCVEFSELCF [IGF568]
WGDDHWEGYDWLYAQT [IGF603]
DLWEGYLWFDSQVLGD [IGF616]
QSYEHWLCQEFHELCF [IGF560]
LTSADLLCSEFRELCF [IGF573]
PAASAWEGYKWLYDQV [IGF625]
LCLEFAELCFGWDDNS [IGF557]
YSIQDHGAWPGYDWLY [IGF612]
SAGEHWLCVEFQELCF [IGF569]
SYDYSQGEWEGYQWLY [IGF618]
LRFESPQLCKEFPELCFFESNGW [IGF578]
PPIMHPLCLEFAELCF [IGF552]
QRFEPDDLCKEFPELCFNLNMNV [IGF556]
LCAEFIELCFDLEPGI [IGF553]
PRLCKEFPELCFEVPVIGNEEHYSL [IGF565]
HDSALMAEWEGYNWLY [IGF619]
PLWEGYSWLYSQEAGN [IGF600]
QWGHKSEQWEGYSWLY [IGF613]
QPWEGYKWLYEAA [IGF623]
SSPPHWLCLEFEELCF [IGF561]
RSLVCSEEEPFYLALCRLTH [IGF1273]
LCKEFPELCFDERDKK [IGF572]
VFLDAPELCKEFSELCFGYSDSL [IGF585]
IPLLCLEFPVLCFENE [IGF617]
RTVVPPLCLEFPELCF [IGF581]
RDPVCETKDVFYQMLCTVAF [IGF1272]
IDRPPDLCKEFPELCF [IGF584]
TLSPHPLCVEFPELCF [IGF567]
RDEAEWEGYNWLYSQM [IGF604]
LTPAERLCDEFPVLCF [IGF571]
FYNTCQFVGMEFYQCLDWL [IGF1271]
VFQMHPLCLEFPELCF [IGF549]
QQPNTWEGYSWLYSQV [IGF614]
ALPECQDLMFYECLFTL [IGF1270]
EPWEGYSWLY [IGF596]
LCQEFKELCFEAEFQA [IGF546]
GSLSVPKLCKEFPELCFDKKMSG [IGF555]
QGSKVLELCKEFPELCFDRANRL [IGF566]
